Test results taken from PubChem BioAssay AID1259354 (Paczesny and Yang Labs, IUPUI and University of Michigan, 2018).
About 1,800 (2.3%) of roughly 78,000 compounds were called active. The shares of active, inactive and inconclusive entries below differ from those in the screen. Cut-off read from the data, not from the text of the source: active = inhibition above about 30%; inconclusive = mostly about 10% to 28%; inactive = weaker than that.

By UniProt entry, the sequences of proteins in these tests, tags left out. Where a name states a change or a piece, a line headed by the entry shows the natural chain unless it says otherwise.
UniProt Q01638: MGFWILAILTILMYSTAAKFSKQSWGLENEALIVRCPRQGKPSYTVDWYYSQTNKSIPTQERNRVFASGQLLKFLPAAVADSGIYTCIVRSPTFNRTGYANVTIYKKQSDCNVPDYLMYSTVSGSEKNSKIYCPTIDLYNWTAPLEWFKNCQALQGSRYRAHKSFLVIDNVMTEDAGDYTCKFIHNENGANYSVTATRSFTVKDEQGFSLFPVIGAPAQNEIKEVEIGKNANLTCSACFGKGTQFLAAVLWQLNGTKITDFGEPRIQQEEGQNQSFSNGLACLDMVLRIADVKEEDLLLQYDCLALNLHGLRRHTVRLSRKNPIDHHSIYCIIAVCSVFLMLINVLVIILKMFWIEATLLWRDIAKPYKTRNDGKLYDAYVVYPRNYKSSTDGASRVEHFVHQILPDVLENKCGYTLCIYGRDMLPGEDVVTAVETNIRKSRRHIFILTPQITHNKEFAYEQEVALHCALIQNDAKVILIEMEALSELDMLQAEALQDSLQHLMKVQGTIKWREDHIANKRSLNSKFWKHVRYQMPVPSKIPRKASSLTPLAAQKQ

Each compound was assayed against Interleukin-1 receptor-like 1 (Homo sapiens) (UniProt Q01638) (assay: inhibitors of human ST2 (IL1RL1) binding to IL-33, primary screen, biochemical, AlphaLISA (AID 1259354)). Conditions: AlphaLISA ST2-Fc/biotin-IL-33 interaction, 1 h; at 17 µM, stronger effect = higher value.

Row | SMILES | inhibition
1 | Cc1ccccc1N1CCN(Cc2cccc(Br)c2)CC1 | inconclusive: 17%
2 | CCCN1CC[C@@H]2c3cc(O)ccc3CC[C@@H]21 | inconclusive: 11%
3 | CSc1ccc(C(=O)C2CCCN(Cc3nc(C(C)C)cs3)C2)cc1 (configuration not stated) | inactive
4 | CC(=O)c1cccc(NC(=O)NC[C@H]2C[C@@H]3CCN2C[C@@H]3c2cc(-c3cccs3)nc(C)n2)c1 | inconclusive: 10%
5 | O=C(O)c1[nH]c2ccc(Cl)cc2c1CC(=O)N1CCN(C2CCCCC2)CC1 | inactive
6 | COc1ccc(-c2cc([C@H]3CN4CC[C@H]3C[C@@H]4CNS(C)(=O)=O)n(C)n2)cc1 | inconclusive: 17%
7 | C=CCN1C(=O)NC(=O)/C(=C/c2cn(Cc3ccc(Cl)cc3)c3ccccc23)C1=O | inconclusive: 17%
8 | CN(CCc1ccccn1)C[C@H]1CN2CC[C@H]1C[C@@H]2CNC(=O)c1ccc2c(c1)OCO2 | inconclusive: 18%
9 | COc1ccc2c3c1O[C@H]1C(=O)CC[C@@]4(O)C(C2)N(CC2CC2)CCC314 (some centres not stated) | inconclusive: 22%
10 | COc1ccc(CN2CCN(c3cccc(OC)c3)CC2)cc1 | inconclusive: 15%
11 | COc1cc(C(=O)N2CCC3(CC2)CN(C)CCN3C)ccn1 | inactive
12 | COC(=O)C1=C(C(=O)OC)C2c3ccccc3C=CN2C(C(=O)OC)=C1C(=O)OC (configuration not stated) | inconclusive: 24%
13 | COc1ccc(-c2cc([C@H]3CN4CC[C@H]3C[C@@H]4CO)n(C)n2)cc1 | inconclusive: 10%
14 | O=C(c1ccco1)N1C[C@@H]2C[C@H](C1)c1ccc(NS(=O)(=O)Cc3ccccc3)c(=O)n1C2 | inactive
15 | c1ccc(-c2ncc(CN3CCC4(CCNCC4)C3)cn2)cc1 | inconclusive: 16%
16 | CC(=O)NCCNC(=O)[C@H]1CN2CC[C@H]1C[C@@H]2Cn1cc(COc2ccccc2)nn1 | inactive
17 | CN(C)CCNc1ccc([N+](=O)[O-])c2cccnc12 | inconclusive: 16%
18 | Cc1ccccc1-c1ccc2n(c1=O)C[C@H]1C[C@@H]2CN(C(=O)Nc2ccccc2)C1 | inactive
19 | N#Cc1cccc(NC(=O)N2C[C@@H]3C[C@H](C2)c2ccc(-c4ccc(Cl)cc4)c(=O)n2C3)c1 | inactive
20 | Oc1c(Cl)cc(-c2cc(Cl)c(O)c(Cl)c2)cc1Cl | inconclusive: 16%
21 | COc1ccc(C(=O)N2C[C@@H]3C[C@H](C2)c2c(C4CCCCC4)ccc(=O)n2C3)cc1 | inconclusive: 28%
22 | COc1ccc(-c2cc([C@H]3CN4CC[C@H]3C[C@@H]4CNC(=O)c3ccco3)n(C)n2)cc1 | inconclusive: 17%

Row | SMILES | inhibition
23 | CCc1ccccc1NC(=O)CN1C(=O)C(C)N=C(c2ccccc2)c2ccccc21 (configuration not stated) | inactive
24 | CN1CCCN(Cc2c[nH]c3ccccc23)CC1 | inconclusive: 22%
25 | O=S(=O)(NC[C@H]1C[C@@H]2CCN1C[C@@H]2CN1CCN(c2ccccc2)CC1)c1ccccc1 | inactive
26 | C=C[C@H]1CN2CC[C@H]1C[C@@H]2CNC(=O)c1ccc2ccccc2c1 | inconclusive: 21%
27 | CCN(CC)c1ccc([N+](=O)[O-])c2cccnc12 | active: 56%
28 | NC1CCc2cc(O)c(O)cc2C1 (configuration not stated) | inconclusive: 11%
29 | COc1ccc(-c2cc([C@H]3CN4CC[C@H]3C[C@@H]4CNC(=S)Nc3ccc(Cl)cc3)n(C)n2)cc1OC | inactive
30 | Nc1c(C(=O)Nc2ccccc2)sc2nc3c(cc12)N1CCC3CC1 | inactive
31 | Cc1ccc(CN2CCN(c3ccccc3C)CC2)cc1 | inconclusive: 28%
32 | O=C(c1ccc(F)cc1)N1C[C@@H]2C[C@H](C1)c1ccc(C3CCCCC3)c(=O)n1C2 | inconclusive: 18%
33 | C=C[C@H]1CN2CC[C@H]1C[C@@H]2CNS(=O)(=O)c1cccc(C#N)c1 | inconclusive: 14%
34 | CC[C@H]1CN2CC[C@H]1C[C@@H]2CNC(=O)Nc1ccccc1 | inconclusive: 27%
35 | COc1ccc(-n2c(/C=C\c3ccccc3F)nc3ccccc3c2=O)cc1OC | inconclusive: 20%
36 | CN(C)c1ccc(NC(=S)NC[C@H]2C[C@@H]3CCN2C[C@@H]3CN2CCc3ccccc32)cc1 | inactive
37 | O=C(CC1=CCCCC1)N1[C@H]2CCNC[C@@H]1CC2 | inactive
38 | COc1ccc(-n2c(/C=C/c3cccc(F)c3)nc3ccccc3c2=O)c(OC)c1 | inconclusive: 23%
39 | O=C(c1coc2ccccc12)N1C[C@@H](c2ccccc2)[C@@H]2[C@H]1C1CCN2CC1 | inactive
40 | CCC(C)n1[nH]c(=O)c2c1NC(=O)CSC2c1ccc(OCc2ccccc2)cc1 (configuration not stated) | inconclusive: 15%
41 | Oc1ccc2c3c1O[C@H]1[C@@H](O)CC[C@@]4(O)C(C2)N(CC2CCC2)CCC314 (some centres not stated) | inconclusive: 21%
42 | O=c1c(C2CCCCC2)ccc2n1C[C@H]1C[C@@H]2CN(Cc2ccc(CO)o2)C1 | inconclusive: 21%
43 | O=C(NC[C@H]1C[C@@H]2CCN1C[C@@H]2CN1CCN(c2ccccc2)CC1)c1ccco1 | inconclusive: 13%
44 | Fc1ccccc1N1CCN(Cc2cccc(Cl)c2)CC1 | inconclusive: 13%

Row | SMILES | inhibition
45 | Cc1ccccc1-n1cc(C2=CCN(CC(=O)Nc3ccn(C)n3)CC2)cn1 | inconclusive: 14%
46 | CCN1CCN(Cc2cc(OC)c(OC)c(OC)c2)CC1 | inactive
47 | CN1CC2(CCN(c3nccc(N)n3)CC2)CC1C(=O)O (configuration not stated) | inconclusive: 12%
48 | COc1nc(C)cc(C)c1CNc1ncnc2c1CCN(C(=O)C1CC1)C2 | inconclusive: 17%
49 | Nc1cccc(-c2cn(C[C@H]3CC4CCN3C[C@@H]4C(=O)NC3CC3)nn2)c1 (some centres not stated) | inconclusive: 14%
50 | O=C1NC(=O)C(CCc2ccncc2)(CCc2ccncc2)C(=O)N1c1ccccc1 | inactive
51 | COc1ccccc1N1CCN(C[C@H]2CN3CC[C@H]2C[C@@H]3CNC(=S)NCc2ccco2)CC1 | inactive
52 | c1ccc(CSc2nnc(-c3ccccc3)o2)cc1 | inconclusive: 14%
53 | COC(=O)Nc1cccc(NC(=O)OC)c1 | inconclusive: 13%
54 | Cc1ccc(NC(=O)CN2C(=O)C(C)N=C(c3ccccc3)c3ccccc32)c(C)c1 (configuration not stated) | inconclusive: 17%
55 | O=C(NC[C@H]1C[C@@H]2CCN1C[C@@H]2CN1CCSCC1)c1ccc(C(F)(F)F)cc1 | inconclusive: 16%
56 | COC(=O)[C@]12CCCC(C)(C)C1CCc1cc(C(C)C)c(O)c(O)c12 (some centres not stated) | inconclusive: 10%
57 | C[C@]12CCC3C(CC[C@H]4C[C@H](O)CC[C@]34C)C1CC[C@@H]2C(=O)CO (some centres not stated) | inconclusive: 23%
58 | COc1ccc(CN2CCN(c3cccc(Cl)c3)CC2)c(OC)c1 | inconclusive: 12%
59 | c1ccc(CN2CCN(Cc3ccc4c(c3)OCCO4)CC2)cc1 | inconclusive: 19%
60 | COc1ccc(CN2CCN(c3ccc(OC)cc3)CC2)cc1 | active: 32%
61 | O=[N+]([O-])c1ccc(N2CCN(Cc3c(Cl)cccc3Cl)CC2)cc1 | inconclusive: 19%
62 | C#C[C@H]1CN2CC[C@H]1C[C@@H]2CNS(=O)(=O)c1cccs1 | inconclusive: 13%
63 | CC(C)CNC(=S)NC[C@H]1C[C@@H]2CCN1C[C@@H]2c1cc(-c2ccccc2)nn1C | inactive
64 | CC(C)c1nccc(CN2CCC3(CC2)C(=O)N(C)c2ccccc23)n1 | inconclusive: 10%
65 | CN(C)Cc1ccccc1-c1ccc2n(c1=O)C[C@H]1C[C@@H]2CN(C(=O)CCC(=O)O)C1 | inactive
66 | COc1ccc(CN2CCN(C)CC2)c(OC)c1 | inconclusive: 16%

From no. 61 up to 64, copied from above:
Row | SMILES | inhibition
61 | O=[N+]([O-])c1ccc(N2CCN(Cc3c(Cl)cccc3Cl)CC2)cc1 | inconclusive: 19%
62 | C#C[C@H]1CN2CC[C@H]1C[C@@H]2CNS(=O)(=O)c1cccs1 | inconclusive: 13%
63 | CC(C)CNC(=S)NC[C@H]1C[C@@H]2CCN1C[C@@H]2c1cc(-c2ccccc2)nn1C | inactive
64 | CC(C)c1nccc(CN2CCC3(CC2)C(=O)N(C)c2ccccc23)n1 | inconclusive: 10%

Additional structures.

Row | SMILES | inhibition
67 | CN(C)Cc1cn(C[C@H]2C[C@@H]3CCN2C[C@@H]3C(=O)NCc2ccc(F)cc2)nn1 | inconclusive: 18%
68 | C=CCN(C)C[C@H]1CN2CC[C@H]1C[C@@H]2CNC(=O)c1ccccc1 | inconclusive: 16%
69 | CC[C@H]1CN2CC[C@H]1C[C@@H]2CNC(=O)CCCC(=O)O | inactive
70 | CC(=O)N1C[C@@H]2C[C@H](C1)c1ccc(NC(=O)Cc3ccccc3)c(=O)n1C2 | inconclusive: 12%
71 | CCOC(=O)Cc1csc(NC(=O)c2cccn(Cc3ccc(Br)cc3)c2=O)n1 | inconclusive: 15%
72 | Cc1ccc(N2CCC(NC(C)Cc3ncccc3C)CC2)cc1 (configuration not stated) | inconclusive: 16%
73 | CC(C)=CC(=O)N1CCN(C)C2(CCN(C)CC2)C1 | inactive
74 | CSc1ccc(-c2ccc(=O)n3c2[C@@H]2C[C@@H](CN(C(=O)NC4CCCCC4)C2)C3)cc1 | inconclusive: 12%
75 | COc1ccc(NC(=O)NC[C@H]2C[C@@H]3CCN2C[C@@H]3c2cc(-c3cccs3)nn2C)cc1 | inconclusive: 12%
76 | O=c1c(-c2cccnc2)ccc2n1C[C@H]1C[C@@H]2CN(Cc2ccc(CO)o2)C1 | inactive
77 | C[C@H]1OC[C@@H](C[N+](C)(C)C)O1 | inconclusive: 11%
78 | Clc1ccc(CN2CCN(Cc3ccc(Cl)cc3)CC2)cc1 | inconclusive: 16%
79 | COC[C@H]1CCCN1C[C@H]1CN2CC[C@H]1C[C@@H]2CNC(=S)NCCN1CCOCC1 | inconclusive: 13%
80 | O=c1c2ccccc2nc(Cc2ccccc2)n1-c1cccc([N+](=O)[O-])c1 | inconclusive: 11%
81 | CCOC(=O)c1nc2ccccc2c(=O)n1-c1cc(Cl)cc(Cl)c1 | inconclusive: 13%
82 | CCCS(=O)(=O)Nc1ccc(=O)n2c1[C@@H]1C[C@@H](CN(S(=O)(=O)c3ccc(OC)cc3)C1)C2 | inconclusive: 23%
83 | C#C[C@H]1CN2CC[C@H]1C[C@@H]2CNC(=O)N1CCOCC1 | inconclusive: 12%
84 | O=c1c2ccccc2nc(CSc2ncnc3ccccc23)n1-c1ccccc1 | inconclusive: 14%
85 | C[N+]1(C)C2CCC1CC(OC(=O)c1c[nH]c3ccccc13)C2 (configuration not stated) | inconclusive: 10%
86 | Cn1cc(C=C2C(=O)NC(=O)NC2=O)c2ccccc21 | active: 35%
87 | COc1ccc(CN2CCN(c3ccccc3)CC2)c(C)c1C | inconclusive: 25%
